Data as given in article PMC5828370.
These are yes or no findings as the source states them, for the method shown. Binding seen in cells or lysates may run through a third protein. Here binding means that the protein was enriched with, or labelled near, the bait; the list need not be complete.

The chains behind the UniProt entries cited, without tags or fusion partners. Residues count along the entry.
UniProt Q92743, residues 23-480: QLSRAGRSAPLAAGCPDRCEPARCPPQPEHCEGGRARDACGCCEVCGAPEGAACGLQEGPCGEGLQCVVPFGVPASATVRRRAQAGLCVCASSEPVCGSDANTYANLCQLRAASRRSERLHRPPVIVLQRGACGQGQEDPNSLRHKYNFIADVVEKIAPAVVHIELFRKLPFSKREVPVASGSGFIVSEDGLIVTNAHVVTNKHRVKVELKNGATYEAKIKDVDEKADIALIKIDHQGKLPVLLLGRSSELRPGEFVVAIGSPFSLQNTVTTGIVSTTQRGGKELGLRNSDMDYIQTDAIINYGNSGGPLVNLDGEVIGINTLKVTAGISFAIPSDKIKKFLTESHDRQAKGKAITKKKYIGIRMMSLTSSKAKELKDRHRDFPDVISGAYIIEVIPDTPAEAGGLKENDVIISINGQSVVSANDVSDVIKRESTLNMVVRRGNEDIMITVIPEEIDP

Biological target: HtrA1 (HtrA serine peptidase 1), proteolytically active, overexpressed (human) (UniProt Q92743)
Assay: affinity purification with mass spectrometry; immuno-competitive capture on immobilized anti-HTRA1 with increasing free anti-HTRA1 antibody, lysates of HtrA1 and S328A overexpressing RPE cells; eluates by SDS-PAGE, in-gel trypsin, LC-MS (Orbitrap Fusion); proteins displaced by the free antibody

B1: Complement C1q tumor necrosis factor-related protein 5 (protein, UniProt Q9BXJ0 16-243)
chain: SPPLDDNKIPSLCPGHPGLPGTPGHHGSQGLPGRDGRDGRDGAPGAPGEKGEGGRPGLPGPRGDPGPRGEAGPAGPTGPAGECSVPPRSAFSAKRSESRVPPPSDAPLPFDRVLVNEQGHYDAVTGKFTCQVPGVYYFAVHATVYRASLQFDLVKNGESIASFFQFFGGWPKPASLSGGAMVRLEPEDQVWVQVGVGDYIGIYASIKTDSTFSGFLVYSDWHSSPVFA
With B1 the binding was “binds”.
